Here are results for 24 compounds from patent US20220160802A1, “METHODS AND COMPOSITIONS FOR PROMOTING HEALTH IN A SUBJECT” (COMMONWEALTH SCIENTIFIC AND INDUSTRIAL RESEARCH ORGANISATION, priority 2019, published 2022).

The nature of the data set: Untargeted LC-MS metabolite analysis of fermented and non-fermented broccoli puree. Particulars: fermented vs non-fermented broccoli puree.
For the compound `CSCCCCCCC(S)=NO` [6-methylthiohexyl-thiohydroximate], the FC amounted to 5.5473. For the compound `O=C1O[C@H](COP(=O)(O)O)[C@@H](O)[C@H](O)[C@H]1O` [6-phospho D-glucono-1,5-lactone], the FC is 5.8171. The figure for `CC(C)[C@H](C)[C@@H](O)[C@H](O)[C@@H](C)[C@H]1CC[C@H]2[C@@H]3C[C@H](O)[C@H]4C[C@H](O)[C@H](O)C[C@]4(C)[C@H]3CC[C@]12C` [6alpha-hydroxy-castasterone] is 3.7782; for `CC(=O)OC[C@H]1O[C@@H](Oc2ccc3c(=O)c(-c4ccc(O)cc4)coc3c2)[C@H](O)[C@@H](O)[C@@H]1O` [6″-O-Acetyldaidzin] it is 0.158. With `COc1cc2c(=O)c(-c3ccc(O)cc3)coc2cc1O[C@@H]1O[C@H](COC(=O)CC(=O)O)[C@@H](O)[C@H](O)[C@H]1O` [6″-O-Malonylglycitin], the FC amounted to 0.1674. Turning to `COc1cc(C[C@H]2C(=O)OC[C@@H]2[C@H](O)c2ccc(O)c(OC)c2)ccc1O` [7-Hydroxymatairesinol], the FC came to 2.0626. Turning to `CSCCCCCCCC(=NOS(=O)(=O)O)S[C@@H]1O[C@H](CO)[C@@H](O)[C@H](O)[C@H]1O` [7-methylthioheptyl glucosinolate], the FC was found to be 0.4242.

Turning to `C[S+]([O-])CCCCCCCCC(=NOS(=O)(=O)O)S[C@@H]1O[C@H](CO)[C@@H](O)[C@H](O)[C@H]1O` (stereo partly drawn) [8-methylsulfinyloctyl glucosinolate], the FC was 0.1694. Take `CSCCCCCCCCC(S)=NO` [8-methylthiooctyl-thiohydroximate]: the FC is on record as 0.2826.

`Nc1nc2c([nH]c(=O)n2[C@@H]2O[C@H](COP(=O)(O)O)[C@@H](O)[C@H]2O)c(=O)[nH]1` [8-oxo-GMP]: the FC worked out at 9.8883.

Turning to `CSCCCCCCCCCC(S)=NO` [9-methylthiononyl-thiohydroximate], the FC was determined as 15.416.

As for `CSCCCCCCCCC(=O)C(=O)O` [10-methylthio-2-oxodecanoate], the FC amounted to 4.5655.

For the compound `O=C(O)CCCCCCCCCCCCCCCCCO` [18-hydroxystearate], the FC is given as 0.1452. In the case of `CC(C)[C@@H](C)[C@@H](O)[C@H](O)[C@@H](C)[C@H]1CC[C@H]2[C@@H]3CC=C4C[C@@H](O)CC[C@]4(C)[C@H]3CC[C@]12C` [22R,23R-22,23-dihydroxycampesterol], the FC is on record as 2.0564.

On to `CC(C)[C@H](C)C[C@H](O)[C@@H](C)[C@H]1CC[C@H]2[C@@H]3CCC4=CC(=O)CC[C@]4(C)[C@H]3CC[C@]12C` [22alpha-hydroxy-campest-4-en-3-one], for which the FC was found to be 0.3267.

As to `C[C@H](CCC=C1CC1)[C@H]1CC[C@H]2C3=C(CC[C@]12C)[C@@]1(C)CC[C@H](O)C[C@@H]1CC3` [26,27-dehydrozymosterol], the FC stood at 14.846. Regarding `Nc1ncnc2c1ncn2[C@@H]1O[C@H](COP(=O)(O)O)[C@@H](O)[C@H]1O` [AMP], the FC was 2.1939. For the compound `COc1cc(C[C@H]2COC[C@@H]2Cc2ccc(O)c(OC)c2)ccc1O` [Anhydro-secoisolariciresinol], the FC is recorded as 2.3975. As to `O=C(O)CC(=O)OC[C@H]1O[C@@H](Oc2cc(O)c3c(=O)cc(-c4ccc(O)cc4)oc3c2)[C@H](O[C@@H]2OCC(O)(CO)[C@H]2O)[C@@H](O)[C@@H]1O` (stereo partly drawn) [Apigenin 7-O-6″-malonyl-apiosyl-glucoside], the FC is given as 0.3809. `O=C(O)c1ccccc1` [Benzoic acid]: the FC is recorded as 4670.1.

Consider `COc1ccc(-c2coc3cc(O)cc(O)c3c2=O)cc1` [Biochanin A], for which the FC was 2.1017. On to `C[N+](C)(C)CCOP(=O)(O)OP(=O)([O-])OC[C@H]1O[C@@H](n2ccc(N)nc2=O)[C@H](O)[C@@H]1O` [CDP-choline], for which the FC was found to be 617.84.

`Oc1ccccc1O` [Catechol]: the FC came to 4.0005. `COc1cc(-c2cc(=O)c3c(O)cc(OC4O[C@H](COC(=O)CC(=O)O)[C@@H](O)[C@H](O)[C@H]4O)cc3o2)ccc1O` (stereo partly drawn) [Chrysoeriol 7-O-6″-malonyl-glucoside]: the FC is on record as 4.8949.
